Results as given in patent publication US20190233516A1.
No constants are given. Whether binding was seen depends on the method and setting. Some binding calls cover weakened binding; strength is not graded here. Tags and fused reporters may be left off the sequences shown.

Protein sequences, listed by entry. Tags and fused reporters are not part of them. Residues count along the entry.
UniProt P15209, residues 32-821: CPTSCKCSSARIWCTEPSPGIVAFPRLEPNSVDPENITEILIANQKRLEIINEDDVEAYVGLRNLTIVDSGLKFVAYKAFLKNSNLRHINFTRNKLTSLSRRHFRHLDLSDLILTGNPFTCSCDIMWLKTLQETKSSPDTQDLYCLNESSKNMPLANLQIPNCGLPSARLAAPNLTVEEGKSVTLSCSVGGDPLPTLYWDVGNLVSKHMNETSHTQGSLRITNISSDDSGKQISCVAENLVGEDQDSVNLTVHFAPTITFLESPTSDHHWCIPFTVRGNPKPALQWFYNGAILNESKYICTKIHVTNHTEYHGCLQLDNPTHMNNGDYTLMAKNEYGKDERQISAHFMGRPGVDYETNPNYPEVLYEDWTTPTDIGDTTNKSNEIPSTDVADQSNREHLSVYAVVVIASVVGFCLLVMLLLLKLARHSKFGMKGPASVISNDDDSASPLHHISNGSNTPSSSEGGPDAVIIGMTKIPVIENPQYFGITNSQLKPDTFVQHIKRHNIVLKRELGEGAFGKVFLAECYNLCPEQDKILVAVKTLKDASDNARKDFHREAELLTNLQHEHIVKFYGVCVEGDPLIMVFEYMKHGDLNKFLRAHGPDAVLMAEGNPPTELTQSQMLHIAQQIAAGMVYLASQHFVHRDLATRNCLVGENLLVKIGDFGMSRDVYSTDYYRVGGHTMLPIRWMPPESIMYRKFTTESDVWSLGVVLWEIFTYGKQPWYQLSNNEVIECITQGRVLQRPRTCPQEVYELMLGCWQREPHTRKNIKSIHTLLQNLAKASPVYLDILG

Target: Mouse TrkB (tyrosine receptor kinase B) on RAW 264.7 cells (mouse) (UniProt P15209)
Assay: coculture of BW5147 cells carrying the chimeric receptor with RAW cells overexpressing TrkB; binding is told in words and read out by IL-2 ELISA

binding: binds
B1: TrkB-Myc-WT chimeric transmembrane protein (anti-TrkB VL-linker-VH-Myc-hinge-TM cytoplasmic part, wild type zeta chain) (scFv)
chain: DVVMTQLPLSLPVILGDQASISCRSSQSLIHSNGNTYLHWYLQKPGQSPKLLIYKVSNRFSGVPDRFSGSGSGTDFTLKISRVEAEDLGVYFCSQSTHVPFTFGSGTKLEIKRAGGSSRSSSSGGGGSGGGGQVQLQQSGPELVKPGASVKLSCKASGYTFTSYDINWVKQRPGQGLEWIGWIYPRDGSIKFNEKFKGKATLTVDTSSSTAYMELHSLTSEDSAAYFCARRGRLLLYGFAYWGQGTLVTVSAVDEQKLISEEDLALSNSIMYFSHFVPVFLPAKPTTTPAPRPPTPAPTIASQPLSLRPEASRPAAGGAVHTRGLDLCYLLDGILFIYGVIITALYLRAKFSRSAETAANLQDPNQLYNELNLGRREEYDVLEKKRARDPEMGGKQQRRRNPQEGVYNALQKDKMAEAYSEIGTKGERRRGKGHDGLYQGLSTATKDTYDALHMQTLAPR
